Data taken from publication PMC9054788.
Results are given in words; binding and its absence hold for the method and conditions named. Binding seen in cells or lysates may run through a third protein. Some entries that bind do so weakly or less than the wild type. For some assays here: Sequences can lack the tags named with a protein. One block for each molecule: values may come before it.

Chains of the proteins cited; added tags and fusions are not shown.
UniProt Q96RR4: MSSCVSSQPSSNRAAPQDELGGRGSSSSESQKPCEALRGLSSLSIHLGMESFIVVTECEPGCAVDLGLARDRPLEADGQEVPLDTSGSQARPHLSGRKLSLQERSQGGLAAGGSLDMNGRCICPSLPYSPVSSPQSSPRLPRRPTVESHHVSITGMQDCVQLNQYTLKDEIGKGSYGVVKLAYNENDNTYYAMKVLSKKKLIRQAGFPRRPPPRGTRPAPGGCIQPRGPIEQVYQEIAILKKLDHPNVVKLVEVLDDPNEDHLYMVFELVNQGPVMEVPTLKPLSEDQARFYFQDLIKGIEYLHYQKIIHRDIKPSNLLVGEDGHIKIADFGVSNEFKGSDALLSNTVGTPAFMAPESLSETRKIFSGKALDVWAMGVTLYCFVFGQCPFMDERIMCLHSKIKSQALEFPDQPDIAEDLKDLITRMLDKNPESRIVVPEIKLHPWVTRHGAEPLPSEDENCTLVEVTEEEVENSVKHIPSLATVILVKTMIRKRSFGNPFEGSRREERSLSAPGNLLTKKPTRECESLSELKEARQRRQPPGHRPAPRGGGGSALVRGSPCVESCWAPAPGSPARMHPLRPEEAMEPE

Legend:
Midkine = biological target: T1, Midkine (UniProt P21741); experiment: pull-down; indicated constructs expressed in HEK293T cells for 24 h; cell lysates pulled down with S protein beads (Fig. 2b, c)
T1 sequence: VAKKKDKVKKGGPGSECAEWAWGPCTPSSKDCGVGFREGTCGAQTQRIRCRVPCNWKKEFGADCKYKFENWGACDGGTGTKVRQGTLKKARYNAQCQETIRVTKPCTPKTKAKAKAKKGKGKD

[1] = biological target: T2, Midkine stably expressed in A549 cells (UniProt P21741); experiment: co-IP; MDK coprecipitates from A549 cells stably expressing MDK, LKB1 reconstituted
T2 sequence: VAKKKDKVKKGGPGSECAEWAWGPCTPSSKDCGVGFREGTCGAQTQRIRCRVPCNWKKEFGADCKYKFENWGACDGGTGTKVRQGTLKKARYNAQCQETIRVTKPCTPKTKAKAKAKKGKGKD

[2] = biological target: T3, FLAG-tagged LKB1-KD (K78L) (UniProt Q15831); experiment: co-IP; FLAG-tagged LKB1 WT or KD (K78L) expressed in HEK293T cells (Supplementary Fig. S3a)
T3 sequence: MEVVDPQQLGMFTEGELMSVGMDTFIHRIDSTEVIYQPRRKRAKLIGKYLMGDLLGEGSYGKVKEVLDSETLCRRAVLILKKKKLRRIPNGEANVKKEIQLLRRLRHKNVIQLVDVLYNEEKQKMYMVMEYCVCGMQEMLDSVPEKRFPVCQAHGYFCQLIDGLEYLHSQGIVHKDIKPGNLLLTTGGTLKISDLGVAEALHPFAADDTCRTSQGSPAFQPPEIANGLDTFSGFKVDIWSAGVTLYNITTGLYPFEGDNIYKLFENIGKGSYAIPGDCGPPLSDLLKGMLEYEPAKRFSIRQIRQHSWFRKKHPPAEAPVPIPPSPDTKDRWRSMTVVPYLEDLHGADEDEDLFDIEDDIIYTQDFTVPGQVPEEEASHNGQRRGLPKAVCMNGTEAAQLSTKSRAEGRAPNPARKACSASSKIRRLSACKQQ

[3] = biological target: T4, FLAG-tagged wild-type LKB1 (UniProt Q15831); experiment: as above
T4 sequence: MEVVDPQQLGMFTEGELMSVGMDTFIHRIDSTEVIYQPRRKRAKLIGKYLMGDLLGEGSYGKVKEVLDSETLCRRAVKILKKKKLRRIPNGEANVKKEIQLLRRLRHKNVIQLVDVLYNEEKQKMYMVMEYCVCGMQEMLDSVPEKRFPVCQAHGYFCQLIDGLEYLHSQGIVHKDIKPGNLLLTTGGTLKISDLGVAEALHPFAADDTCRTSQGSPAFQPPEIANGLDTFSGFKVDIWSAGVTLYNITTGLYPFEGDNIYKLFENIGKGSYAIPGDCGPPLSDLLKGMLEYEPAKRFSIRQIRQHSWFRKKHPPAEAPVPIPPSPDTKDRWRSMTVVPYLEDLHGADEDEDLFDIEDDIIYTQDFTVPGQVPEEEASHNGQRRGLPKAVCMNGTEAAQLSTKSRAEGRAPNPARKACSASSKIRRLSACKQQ

[4] = biological target: T5, endogenous LKB1 (human (endogenous in HEK293T, HCCLM3, HepG2)) (UniProt Q15831); experiment: co-IP; endogenous LKB1 immunoprecipitated from HEK293T cells transduced with MDK-HA or control
T5 sequence: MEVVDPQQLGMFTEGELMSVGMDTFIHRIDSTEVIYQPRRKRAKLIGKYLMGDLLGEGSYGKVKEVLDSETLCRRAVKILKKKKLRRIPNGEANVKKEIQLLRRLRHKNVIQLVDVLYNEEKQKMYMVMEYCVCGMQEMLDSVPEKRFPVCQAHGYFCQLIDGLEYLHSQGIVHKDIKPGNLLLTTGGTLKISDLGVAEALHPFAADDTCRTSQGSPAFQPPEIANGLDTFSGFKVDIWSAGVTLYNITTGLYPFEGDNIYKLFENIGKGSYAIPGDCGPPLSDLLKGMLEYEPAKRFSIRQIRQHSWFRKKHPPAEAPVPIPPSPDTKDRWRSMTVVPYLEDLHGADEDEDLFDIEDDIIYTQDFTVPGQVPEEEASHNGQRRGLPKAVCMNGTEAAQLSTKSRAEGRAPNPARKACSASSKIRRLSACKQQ

SFB-tagged LKB1 = biological target: T6, SFB-tagged LKB1 (UniProt Q15831); experiment: pull-down; HEK293T cells cotransfected with different doses of MDK-HA and SFB-tagged LKB1 or SFB-tagged AMPKα1; pulled down with S protein beads
T6 sequence: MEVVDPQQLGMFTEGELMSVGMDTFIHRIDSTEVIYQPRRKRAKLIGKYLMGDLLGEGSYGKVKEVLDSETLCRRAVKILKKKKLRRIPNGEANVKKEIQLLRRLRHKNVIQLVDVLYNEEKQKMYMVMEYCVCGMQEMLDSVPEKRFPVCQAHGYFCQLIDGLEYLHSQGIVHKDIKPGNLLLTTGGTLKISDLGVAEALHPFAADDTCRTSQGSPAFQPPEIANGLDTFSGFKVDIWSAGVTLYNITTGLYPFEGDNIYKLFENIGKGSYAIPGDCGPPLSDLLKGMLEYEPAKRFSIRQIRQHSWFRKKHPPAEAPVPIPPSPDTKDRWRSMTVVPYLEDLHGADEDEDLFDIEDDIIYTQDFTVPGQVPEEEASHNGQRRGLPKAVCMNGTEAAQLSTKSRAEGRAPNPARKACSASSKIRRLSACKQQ

[5] = biological target: T5, endogenous LKB1 (human (endogenous in HEK293T, HCCLM3, HepG2)); experiment: co-IP; endogenous MDK or endogenous LKB1 immunoprecipitated from HCCLM3 or HepG2 cells, Western blot; also HCCLM3 cells transduced with MDK shRNA1
[6] = biological target: T7, endogenous Midkine (human (endogenous in HCCLM3 and HepG2)) (UniProt P21741); experiment: as above
T7 sequence: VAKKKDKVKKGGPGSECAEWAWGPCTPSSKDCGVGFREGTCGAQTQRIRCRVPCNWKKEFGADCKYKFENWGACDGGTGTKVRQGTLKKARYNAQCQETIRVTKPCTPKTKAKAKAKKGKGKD

[7] = biological target: T3, FLAG-tagged LKB1-KD (K78L); experiment: co-IP; FLAG-tagged LKB1-KD and SFB-tagged AMPKα1 expressed in HEK293T cells for 48 h with or without MDK-HA; immunoprecipitation with primary LKB1 and IgG antibodies
MDK-HA = biological target: T8, MDK-HA (UniProt P21741); experiment: co-IP; HEK293T cells cotransfected with MDK-HA and Flag-tagged LKB1 or Myc-tagged Mo25a; immunoprecipitated with HA primary antibody
T8 sequence: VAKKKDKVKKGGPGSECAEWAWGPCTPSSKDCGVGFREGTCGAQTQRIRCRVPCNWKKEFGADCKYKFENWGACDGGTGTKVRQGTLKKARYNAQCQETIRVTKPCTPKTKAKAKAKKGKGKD

[8] = biological target: CAMKKβ (construct of Fig. 2b, not told) (UniProt Q96RR4); experiment: pull-down; indicated constructs expressed in HEK293T cells for 24 h; cell lysates pulled down with S protein beads (Fig. 2b, c)
[9] = biological target: T9, LKB1 (construct not told) (UniProt Q15831); experiment: as above
T9 sequence: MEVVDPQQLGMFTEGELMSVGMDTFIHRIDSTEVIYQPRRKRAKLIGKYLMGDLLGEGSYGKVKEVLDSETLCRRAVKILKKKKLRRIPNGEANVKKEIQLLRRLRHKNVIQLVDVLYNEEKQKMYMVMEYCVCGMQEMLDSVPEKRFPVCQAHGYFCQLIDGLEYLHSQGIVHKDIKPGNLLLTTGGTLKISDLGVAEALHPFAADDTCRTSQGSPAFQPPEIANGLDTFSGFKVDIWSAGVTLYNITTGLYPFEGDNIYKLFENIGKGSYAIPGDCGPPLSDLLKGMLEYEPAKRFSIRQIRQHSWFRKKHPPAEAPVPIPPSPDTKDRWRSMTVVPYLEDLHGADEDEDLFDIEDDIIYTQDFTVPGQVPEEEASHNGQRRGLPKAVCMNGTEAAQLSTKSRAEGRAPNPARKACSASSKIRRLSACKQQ

binding (Midkine): binds
Molecule: endogenous CAMKKβ (from UniProt Q96RR4 1-588)

binding [1]: no binding | binding [2]: binds | binding [3]: binds | binding [4]: binds | binding (Midkine): no binding | binding (SFB-tagged LKB1): binds | binding [5]: binds | binding [6]: no binding | binding [7]: binds
B1: Mo25a (protein, UniProt Q9Y376 1-341)
chain: MPFPFGKSHKSPADIVKNLKESMAVLEKQDISDKKAEKATEEVSKNLVAMKEILYGTNEKEPQTEAVAQLAQELYNSGLLSTLVADLQLIDFEGKKDVAQIFNNILRRQIGTRTPTVEYICTQQNILFMLLKGYESPEIALNCGIMLRECIRHEPLAKIILWSEQFYDFFRYVEMSTFDIASDAFATFKDLLTRHKLLSAEFLEQHYDRFFSEYEKLLHSENYVTKRQSLKLLGELLLDRHNFTIMTKYISKPENLKLMMNLLRDKSRNIQFEAFHVFKVFVANPNKTQPILDILLKNQAKLIEFLSKFQNDRTEDEQFNDEKTYLVKQIRDLKRPAQQEA

binding (MDK-HA): no binding
B2: Myc-tagged Mo25a (protein, UniProt Q9Y376 1-341)
chain: MPFPFGKSHKSPADIVKNLKESMAVLEKQDISDKKAEKATEEVSKNLVAMKEILYGTNEKEPQTEAVAQLAQELYNSGLLSTLVADLQLIDFEGKKDVAQIFNNILRRQIGTRTPTVEYICTQQNILFMLLKGYESPEIALNCGIMLRECIRHEPLAKIILWSEQFYDFFRYVEMSTFDIASDAFATFKDLLTRHKLLSAEFLEQHYDRFFSEYEKLLHSENYVTKRQSLKLLGELLLDRHNFTIMTKYISKPENLKLMMNLLRDKSRNIQFEAFHVFKVFVANPNKTQPILDILLKNQAKLIEFLSKFQNDRTEDEQFNDEKTYLVKQIRDLKRPAQQEA

binding (Midkine): binds
B3: STRADβ (protein, UniProt Q9C0K7 1-418)
chain: MSLLDCFCTSRTQVESLRPEKQSETSIHQYLVDEPTLSWSRPSTRASEVLCSTNVSHYELQVEIGRGFDNLTSVHLARHTPTGTLVTIKITNLENCNEERLKALQKAVILSHFFRHPNITTYWTVFTVGSWLWVISPFMAYGSASQLLRTYFPEGMSETLIRNILFGAVRGLNYLHQNGCIHRSIKASHILISGDGLVTLSGLSHLHSLVKHGQRHRAVYDFPQFSTSVQPWLSPELLRQDLHGYNVKSDIYSVGITACELASGQVPFQDMHRTQMLLQKLKGPPYSPLDISIFPQSESRMKNSQSGVDSGIGESVLVSSGTHTVNSDRLHTPSSKTFSPAFFSLVQLCLQQDPEKRPSASSLLSHVFFKQMKEESQDSILSLLPPAYNKPSISLPPVLPWTEPECDFPDEKDSYWEF

binding [5]: binds
B4: endogenous Midkine (protein, UniProt P21741 21-143)
chain: VAKKKDKVKKGGPGSECAEWAWGPCTPSSKDCGVGFREGTCGAQTQRIRCRVPCNWKKEFGADCKYKFENWGACDGGTGTKVRQGTLKKARYNAQCQETIRVTKPCTPKTKAKAKAKKGKGKD

binding [8]: binds | binding [9]: binds
B5: Midkine (wild type, construct not told) (protein, UniProt P21741 21-143)
chain: VAKKKDKVKKGGPGSECAEWAWGPCTPSSKDCGVGFREGTCGAQTQRIRCRVPCNWKKEFGADCKYKFENWGACDGGTGTKVRQGTLKKARYNAQCQETIRVTKPCTPKTKAKAKAKKGKGKD

binding [2]: binds | binding [3]: binds | binding [4]: binds | binding (Midkine): binds | binding (SFB-tagged LKB1): binds | binding [5]: binds | binding [6]: binds | binding [7]: binds
B6: STRADα (protein, UniProt Q7RTN6 1-431)
chain: MSFLVSKPERIRRWVSEKFIVEGLRDLELFGEQPPGDTRRKTNDASSESIASFSKQEVMSSFLPEGGCYELLTVIGKGFEDLMTVNLARYKPTGEYVTVRRINLEACSNEMVTFLQGELHVSKLFNHPNIVPYRATFIADNELWVVTSFMAYGSAKDLICTHFMDGMNELAIAYILQGVLKALDYIHHMGYVHRSVKASHILISVDGKVYLSGLRSNLSMISHGQRQRVVHDFPKYSVKVLPWLSPEVLQQNLQGYDAKSDIYSVGITACELANGHVPFKDMPATQMLLEKLNGTVPCLLDTSTIPAEELTMSPSRSVANSGLSDSLTTSTPRPSNGDSPSHPYHRTFSPHFHHFVEQCLQRNPDARPSASTLLNHSFFKQIKRRASEALPELLRPVTPITNFEGSQSQDHSGIFGLVTNLEELEVDDWEF
